# From paper PMC8536318
# Sequences of proteins named here, by UniProt entry; tags and fusion partners are left off. A change or cut given only in a name is not applied to a line headed by its entry.
# UniProt Q96LZ3: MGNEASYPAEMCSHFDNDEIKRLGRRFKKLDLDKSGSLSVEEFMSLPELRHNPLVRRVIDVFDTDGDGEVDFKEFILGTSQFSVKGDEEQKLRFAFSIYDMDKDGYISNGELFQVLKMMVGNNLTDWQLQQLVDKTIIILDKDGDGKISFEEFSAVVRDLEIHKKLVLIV
# UniProt P48455: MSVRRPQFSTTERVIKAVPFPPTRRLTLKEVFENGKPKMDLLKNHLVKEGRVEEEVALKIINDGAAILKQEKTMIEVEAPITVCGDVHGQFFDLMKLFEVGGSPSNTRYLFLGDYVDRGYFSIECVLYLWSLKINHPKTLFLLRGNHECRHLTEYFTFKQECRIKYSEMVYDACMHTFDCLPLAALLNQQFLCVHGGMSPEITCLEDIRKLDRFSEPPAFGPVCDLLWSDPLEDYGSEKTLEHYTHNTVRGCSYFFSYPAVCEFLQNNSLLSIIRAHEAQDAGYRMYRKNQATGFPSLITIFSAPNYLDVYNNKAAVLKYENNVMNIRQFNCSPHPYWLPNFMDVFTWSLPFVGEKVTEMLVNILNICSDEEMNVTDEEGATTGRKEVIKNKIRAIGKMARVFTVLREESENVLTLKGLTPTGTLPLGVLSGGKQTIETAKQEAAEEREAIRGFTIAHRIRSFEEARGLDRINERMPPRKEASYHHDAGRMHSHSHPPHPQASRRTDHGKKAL
# UniProt Q63811: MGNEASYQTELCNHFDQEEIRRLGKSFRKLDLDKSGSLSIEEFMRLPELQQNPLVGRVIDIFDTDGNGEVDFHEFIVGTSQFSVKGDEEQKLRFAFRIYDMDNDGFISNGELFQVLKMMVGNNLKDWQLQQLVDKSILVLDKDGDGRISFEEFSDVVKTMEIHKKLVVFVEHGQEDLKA
# UniProt Q9DCC8: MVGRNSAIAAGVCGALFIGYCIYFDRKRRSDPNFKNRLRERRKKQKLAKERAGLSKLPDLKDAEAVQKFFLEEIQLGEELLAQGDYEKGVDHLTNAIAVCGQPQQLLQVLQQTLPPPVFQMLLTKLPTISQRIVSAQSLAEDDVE
# No constants are given. Whether binding was seen depends on the method and setting. In cells and extracts the contact can be indirect. Some binding calls cover weakened binding; strength is not graded here. For part of these data: Tags and fused reporters may be left off the sequences shown.
# T1: SPATA33-PA expressed in the testis of Spata33-PA transgenic mice (mouse) (UniProt Q8C624)
# T1 sequence: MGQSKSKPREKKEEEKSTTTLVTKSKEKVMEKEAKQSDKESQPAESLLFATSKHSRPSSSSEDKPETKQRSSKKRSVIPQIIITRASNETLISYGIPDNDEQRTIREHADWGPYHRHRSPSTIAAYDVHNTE
# T2: PA-tagged SPATA33 (mouse, wild type, PQIIIT sequence) (mouse) (UniProt Q8C624)
# T2 sequence: T1 sequence
# B1: PA-tagged SPATA33 (mouse, wild type, PQIIIT sequence) (protein, UniProt Q8C624 1-132)
# chain: T1 sequence
# B2: SPATA33, endogenous in mouse testis (protein, UniProt Q8C624 1-132)
# chain: T1 sequence
# Legend:
# [1] = biological target: T1, SPATA33-PA expressed in the testis of Spata33-PA transgenic mice (mouse); assay: co-IP; testis lysates of SPATA33-PA TG mice; IP with anti-PA antibody on Dynabeads; Western blot
# [2] = biological target: T2, PA-tagged SPATA33 (mouse, wild type, PQIIIT sequence) (mouse); assay: co-IP; reciprocal immunoprecipitation, HEK293T cells coexpressing sperm calcineurin and SPATA33 (PQIIIT or PQIIAT); SPATA33 precipitated (SI Appendix, Fig. S6A)
# [3] = biological target: human sperm calcineurin (human) (UniProt P48454+Q96LZ3); assay: co-IP; HEK293T cells coexpressing human calcineurin (sperm or somatic) and human SPATA33 (SI Appendix, Fig. S6C); bait not given
# [4] = biological target: sperm calcineurin (FLAG-tagged PPP3CC coexpressed with PPP3R2) (mouse (by the mouse gene notation Ppp3cc) | mouse (by the mouse gene notation Ppp3r2)) (UniProt P48455+Q63811); assay: co-IP; HEK293T cells coexpressing Spata33-PA (or mutant) and Ppp3cc-FLAG/Ppp3r2; lysis in 1% Triton X-100, 50 mM NaCl, 20 mM Tris HCl pH 7.4; IP with FLAG M2 antibody on Dynabeads, 60 min at 4 °C; Western blot
# [5] = biological target: sperm calcineurin with FLAG-tagged PPP3CC, from the testis of Ppp3cc-FLAG transgenic mice (mouse (by the mouse gene notation Ppp3cc) | mouse (endogenous in testis)) (UniProt P48455+Q63811); assay: co-IP; testis lysates of Ppp3cc-FLAG TG mice; IP with anti-FLAG antibody on Dynabeads; Western blot
molecule,measurement,setting,value
"sperm calcineurin (PPP3CC with PPP3R2), endogenous in mouse testis (from UniProt P48455 1-513; Q63811 1-179) (complex)",binding,[1],binds
sperm calcineurin (FLAG-tagged PPP3CC coexpressed with PPP3R2) (from UniProt P48455 1-513; Q63811 1-179) (complex),binding,[2],binds
"TOM20, mitochondrial outer membrane protein (from UniProt Q9DCC8 1-145)",binding,[1],no binding
human SPATA33 (from UniProt Q96N06 1-139),binding,[3],binds
B1,binding,[4],binds
B2,binding,[5],binds
